Experimental data taken from PMC11395566, “Novel Copper (II) Complexes with Fluorine-Containing Reduced Schiff Base Ligands Showing Marked Cytotoxicity in the HepG2 Cancer Cell Line” (International Journal of Molecular Sciences, 2024).
In brackets after ≈: the same amount, converted by molar mass.

Experiments:
[1] = test system: S. aureus CNCTC Mau 29/58; test: Antimicrobial activity, broth dilution method; format: cell-based; details: Staphylococcus aureus; 24 h, 37 °C
Description: (§1) The antimicrobial activities of the synthesized copper (II) complexes were evaluated against E. coli CNCTC 377/79 (Gram-negative bacterium), S. aureus CNCTC Mau 29/58 (Gram-positive bacterium), and the yeast C. albicans CCM 8186. Bacterial strains were obtained from the Czech National Collection of Type Cultures (National Institute of Public Health, Prague, Czech Republic) and the yeast was purchased from the Czech Collection of Microorganisms (Masaryk University, Brno, Czech Republic). Bacteria were grown aerobically in nutrient broth (IMUNA PHARM, Šarišské Michaľany, Slovakia) and the yeast in BD Difco Sabouraud dextrose broth (Becton, Dickinson and Company, Franklin Lakes, NJ, USA) for 18 h at 37 °C or 48 h at 24 °C, respectively. Cultures were then maintained at 4 °C on appropriate solid medium: Endo agar (Oxoid Ltd., Basingstoke, UK) for E. coli, blood agar (Biomark Laboratories, Pune, India) for S. aureus, and BD Sabouraud dextrose agar (Becton, Dickinson and Company, Franklin Lakes, NJ, USA) for C. albicans. Working cultures were prepared by the incubation of a single colony of each microorganism in NB (bacteria) or SDB (yeast) for 18 h at 37 °C or 48 h at 24 °C, respectively. […]
(§2) Antimicrobial activity was determined using the broth dilution method as described in [7]. […]

[2] = test system: E. coli CNCTC 377/79; test: Antimicrobial activity, broth dilution method; format: cell-based; details: Escherichia coli, CNCTC377/79; 24 h, 37 °C
Description: as §1, §2

SMILES: O=C(O)c1cn(C2CC2)c2cc(N3CCNCC3)c(F)cc2c1=O [cpx, ciprofloxacine, reference compound]
- MIC [1]: 0.68 µM (≈ 0.225 µg/mL)
- MIC [2]: < 0.3 µM
